From publication PMC4650712, “Conversion of cell-survival activity of Akt into apoptotic death of cancer cells by two mutations on the BIM BH3 domain” (Cell Death & Disease, 2015)
No constants are given. Whether binding was seen depends on the method and setting. Binding seen in cells or lysates may run through a third protein. Some results given as binding are weak or reduced against the parent protein; the word gives no strength. For some assays here: Tags and fused reporters may be left off the sequences shown.

Amino acid sequences for entries named in this document (tags omitted).
UniProt P10417: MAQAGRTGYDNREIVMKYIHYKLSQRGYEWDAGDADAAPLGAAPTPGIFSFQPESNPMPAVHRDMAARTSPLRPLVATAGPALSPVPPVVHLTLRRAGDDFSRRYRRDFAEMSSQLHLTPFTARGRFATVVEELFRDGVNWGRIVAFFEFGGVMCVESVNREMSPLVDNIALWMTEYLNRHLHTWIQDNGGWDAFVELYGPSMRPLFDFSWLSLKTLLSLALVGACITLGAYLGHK

Columns and labels:
[1] = target: T1, Recombinant human PUMA fused to GST (human) (UniProt Q9BXH1); test: pull-down; GST-PUMA bound to glutathione agarose resin, incubated with HEK293 lysate holding HA-tagged BCL-2 and overexpressed Akt (WT, CA or KD), with BH3BIM(I155R/E158S) peptide added; bound HA-BCL-2 detected by immunoblotting; only the target purified
T1 sequence: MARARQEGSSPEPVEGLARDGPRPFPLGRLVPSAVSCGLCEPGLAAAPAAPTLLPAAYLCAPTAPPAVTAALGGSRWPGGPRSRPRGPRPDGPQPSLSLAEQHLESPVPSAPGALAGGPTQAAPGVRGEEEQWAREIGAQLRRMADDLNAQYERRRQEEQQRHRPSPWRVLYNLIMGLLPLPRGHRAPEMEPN

[2] = target: HA-tagged mouse BCL-2 (mouse) (UniProt P10417); test: pull-down; competition: BH3BIM(I155R/E158S) peptide incubated with HEK293 lysate holding HA-tagged BCL-2 and Akt (WT, CA or KD), then with GST-PUMA on glutathione agarose resin; read-out is the loss of bound HA-BCL-2; only the binder purified

**Q.** Which binding [1] does the source give for “HA-tagged mouse BCL-2 (from UniProt P10417 1-236)” here?
**A.** binds

**Q.** With EIWIAQELRRRGDSFNAYYAR (phosphoserine at 158; acetylated amino terminus; amidated carboxyl terminus) [p-BH3BIM(I155R/E158S), 21-mer peptide phosphorylated at Ser158] as the molecule, how does the binding [2] read?
**A.** binds
